Laboratory results taken from patent US20050043280A1, “Use of active ingredients having a mu-opioid receptor agonist action and an opiod receptor antognist action, as combination drugs for the treatment of cancer” (priority 2001, published 2005).

Tests used:
[1] = plasma of the treated naked mice (not shown)
[2] = tested on: human breast carcinoma cells (MCF-7 cell line); details: within 3 weeks; morphine 10, 20, 30 mg/kg daily in week 1, 2, 3; combination with naloxone 1, 2, 3 mg/kg; s.c. MCF-7 in NMRI nu/nu mice
Description: In an established pharmacological animal model, naked mice (NMRI-nu/nu; Harlan, Borchen) received a subcutaneous injection containing a cell suspension (5×10^6 cells in 300 μl per mouse) of human breast carcinoma cells (MCF-7 cell line).
A total of 5×10^6 cells were injected subcutaneously per mouse. […] The animals were treated with 10 mg/kg β-estradiol valerate (i.m.) one day before and 7 and 14 days after the injection of tumor cells. […] Tumor volume=(long diameter×short diameter^2)/2.

SMILES: CN1CC[C@]23c4c5ccc(O)c4O[C@H]2[C@@H](O)C=C[C@H]3[C@H]1C5 [morphine]
- morphine concentrations in the plasma [1]: corresponded to the plasma levels of patients on chronic oral administration of morphine for pain therapy
- tumor growth compared to the control group [2]: approx. one third
